In all, about 330,000 compounds went through this assay and about 520 (0.16%) were called active. Inconclusive means that the source gave no clear call. Such entries were picked first, then a sample of the others.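 How the source made its calls: active means inhibition of at least 50% in every replicate; inconclusive means best replicate reaches 50% inhibition but some replicates fall short; inactive means the rest.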
What follows are compounds tested against Histone acetyltransferase RTT109 (Candida albicans (strain SC5314 / ATCC MYA-2876)) (UniProt Q5AAJ8) (assay: Rtt109-Vps75 histone acetyltransferase blockade – biochemical, ThioGlo CoA-SH fluorescence, plate reader, primary screen (AID 540336)). Details: purified Rtt109/Vps75, ThioGlo CoA-SH fluorescence, 4 h; at 34.9 µM; active compounds read high.

Sequences of proteins named here, by UniProt entry; tags and fusion partners are left off.
UniProt Q5AAJ8, whole entry, looked up: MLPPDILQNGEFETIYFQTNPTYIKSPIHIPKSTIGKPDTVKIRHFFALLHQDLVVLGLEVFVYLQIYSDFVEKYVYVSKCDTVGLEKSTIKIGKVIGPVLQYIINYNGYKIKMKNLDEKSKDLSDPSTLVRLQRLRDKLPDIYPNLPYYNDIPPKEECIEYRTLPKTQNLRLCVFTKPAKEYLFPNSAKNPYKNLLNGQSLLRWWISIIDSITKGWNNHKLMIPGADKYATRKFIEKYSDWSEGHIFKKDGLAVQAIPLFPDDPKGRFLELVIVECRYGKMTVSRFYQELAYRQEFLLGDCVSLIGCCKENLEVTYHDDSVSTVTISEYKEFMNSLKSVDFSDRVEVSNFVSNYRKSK

Row | Compound | inhibition
1 | O=C(NCc1ccncc1)C(=O)N/N=C/c1ccccc1OCc1ccccc1 | inactive: 3.47%
2 | CCC(C)n1c(=O)c(C(=O)Nc2ccccc2S(N)(=O)=O)c(O)c2ccccc21 (stereo not given) | inactive: 0.452%
3 | NC(N)=NCCCC(NC(=O)c1ccccc1)C(=O)Nc1ccc([N+](=O)[O-])cc1 (stereo not given) | inactive: -1.56%
4 | CC(=O)OCC(=O)Nc1c(C)cccc1C | inconclusive: 29.7%
5 | COc1ccccc1N1C(=O)C(Cl)=C(Nc2ccccc2O)C1=O | active: 75%
6 | O=C(NCCCO)c1ccc2[nH]c3c(c2c1)CCCC3 | inconclusive: 155%
7 | Cc1nc(SCC(=O)c2ccccc2)n[nH]1 | inconclusive: 32%
8 | N/C(=N\OC(=O)/C=C/c1ccccc1)c1ccccc1 | inactive: 9.1%
9 | Cc1ccc2nc(N(CCCN(C)C)C(=O)c3ccc4ncsc4c3)sc2c1 | inconclusive: 41.7%
10 | Cc1ccc(NC(=O)CSC2=NCCN2)cc1 | inconclusive: 25.8%
11 | COc1ccc(/C=C/C(=O)Oc2ccc(/C=N/NC(=O)COc3c(C)cccc3C)cc2)cc1 | inactive: 0.0725%
12 | Cc1c(C(=O)N(C)c2ccccc2Cl)cnn1-c1ccccc1 | inconclusive: 15.4%
13 | COc1ccc(-c2nc(-c3cccs3)no2)cc1 | active: 52.3%
14 | C#CCOCCOCCOCCNc1nc(N2CCN(C(=O)CCCCCCCCCCNC(=O)Cn3cc(CCCCCN)nn3)CC2)nc(N2CCN(C(=O)CCCCCCCCCCNC(=O)[C@H](CO)n3cc(CCCSC)nn3)CC2)n1 | inconclusive: 40%
15 | COc1ccccc1C(=O)NNC(=O)c1ccc(NC(=O)C(C)C)cc1 | inactive: -6.88%
16 | COc1cc(C(=O)N2CCN(S(=O)(=O)c3cccc(F)c3)CC2)ccc1OCC(=O)N1CCOCC1 | inconclusive: 30%
17 | C#CCOCCOCCOCCNc1nc(N2CCN(C(=O)C([C@@H](C)O)n3cc([C@@H](N)CCCCN)nn3)CC2)nc(N2CCN(C(=O)[C@H](CCCN=C(N)N)n3cc(C(N)[C@@H](C)CC)nn3)CC2)n1 (stereo not given in full) | inconclusive: 48.3%
18 | CCOc1ccc(NC(=O)CCC(=O)NNC(=O)Nc2cccc(Cl)c2)cc1 | inconclusive: 30.5%
19 | C#CCOCCOCCOCCNc1nc(N2CCN(C(=O)CCCCCCCCCCNC(=O)Cn3cc(C[C@@H](C)O)nn3)CC2)nc(N2CCN(C(=O)CCCCCCCCCCNC(=O)[C@H](CCCN=C(N)N)n3cc(C[C@@H](C)CC)nn3)CC2)n1 | inconclusive: 43.2%
20 | COc1ccc(C(=O)Nc2nc3ccccc3s2)c(OC)c1 | inactive: -6.92%
21 | CCCCCCCCCC[n+]1cccc2c3ccccc3ccc21 | inconclusive: 17.1%
22 | O=C(c1cccc2ccccc12)N1CCC(N2CCN(c3ccccc3)CC2)CC1 | inconclusive: 38.9%
23 | CCn1c(SCC(=O)Nc2ccc(C)cc2)nc2sc3c(c2c1=O)CCN(C)C3 | inconclusive: 62%
24 | Cc1ccc(Oc2ccc(Cl)cc2NC(=O)c2ccc(F)cc2F)cc1 | inconclusive: 36%
25 | N#CC1=C(S)N(c2ccccc2)C(c2ccc(-c3ccccc3Cl)o2)NC1=O (stereo not given) | inconclusive: 48.9%
26 | CN1/C(=C\C=C2/SC(=S)N(CC(=O)O)C2=O)C(C)(C)c2ccccc21 | inconclusive: 51.6%
27 | Cc1ccc(NC(=O)Cn2nnc3ccccc32)cc1 | inactive: -0.66%

Row | Compound | inhibition
28 | N#Cc1c(Nc2ccccc2)sc(C(=O)c2ccccc2)c1N | inconclusive: 33.5%
29 | O=C(c1ccc(Br)o1)N1N=C(c2ccc(Cl)cc2)CC1c1ccco1 (stereo not given) | inactive: -1.87%
30 | CCCNC(=O)c1nnsc1S(=O)(=O)c1ccc(Cl)cc1 | inconclusive: 63.4%
31 | O=C(Cc1ccccc1)O/N=C1\CCCc2ccccc21 | inconclusive: 46.1%
32 | CCCN1CCc2c(sc(NC(=S)NC(=O)c3ccccc3)c2C#N)C1 | inconclusive: 42.6%
33 | Nc1ccc(S(=O)(=O)NNC(=O)C(=O)NNc2ccccc2)cc1 | inactive: 17.1%
34 | COc1ccccc1Nc1nc(N)nc(CSc2nc(C)cc(C)n2)n1 | inactive: 2.19%
35 | Cc1nc(N2CCN(Cc3nc4ccccc4[nH]3)CC2)c2oc3ccccc3c2n1 | inconclusive: 50.9%
36 | CC1(C)CC(=O)C2=C(C1)N(c1ccc(F)cc1)C(=O)C2(O)C(F)(F)F (stereo not given) | inconclusive: 31.4%
37 | O=C(NCc1ccccc1)c1nc(S(=O)(=O)Cc2ccccc2)ncc1Cl | inconclusive: 67.6%
38 | Cc1cc(C)nc(N2CCC(C(=O)Nc3ccc4c(c3)OCCO4)CC2)n1 | active: 54.4%
39 | CC(C)Cn1c(N)c(/C=N/NC(=O)c2ccc(Cl)cc2)c(=O)n(C)c1=O | inactive: 8.37%
40 | Cc1ccc2nc(N(CCCN(C)C)C(=O)c3ccc4c(c3)CCCC4)sc2c1 | active: 63.2%
41 | CN(C)/C=C/C=C1C(=O)CCCC1=O | inconclusive: 47.6%
42 | Cc1oc(-c2ccc(Cl)cc2)nc1CS(=O)CC(=O)NCCCN(C)C1CCCCC1 (stereo not given) | inconclusive: 34%
43 | COc1ccc(C(=O)NC(=O)COC(=O)CCS(=O)(=O)c2ccc(C)cc2)cc1 | inactive: 7.49%
44 | CN1CCN(c2ccc(NC(=O)c3ccc(-c4cccc([N+](=O)[O-])c4)o3)cc2)CC1 | inconclusive: 64%
45 | COc1ccc(C2CC(c3ccc4ccccc4c3)=NN2C(=O)CN2CCC(C(N)=O)CC2)cc1 (stereo not given) | inconclusive: 45.9%
46 | CCN(C[C@H]1N[C@@](CC)(C(=O)OC)[C@H]2C(=O)N(C)C(=O)[C@@H]12)S(=O)(=O)c1ccc(-c2ccccc2)cc1 | inactive: 3.37%
47 | C=CC[C@@H](CC(=O)N(CCO)Cc1ccccc1)C(=O)N[C@@H](C)COC(=O)[C@@H](CC=C)CC(=O)OC(C)(C)C | inactive: -5.78%
48 | O=C(CNc1ccc2ccccc2c1)N/N=C/c1ccc([N+](=O)[O-])o1 | inactive: -2.78%
49 | CCOc1ccc(C2NC(=O)C(C#N)=C(S)N2c2cccc(C)c2)cc1OC (stereo not given) | inconclusive: 58.6%
50 | CC(C)(C)OC(=O)NCc1ccc(CNC(=O)c2[nH]cnc2C(=O)NC2CCN(C(=O)OC(C)(C)C)CC2)cc1 | inconclusive: 26%
51 | CCC(C)(C)c1ccc(OCCCC[n+]2ccccc2)c(C(C)(C)CC)c1 | inconclusive: 40.3%
52 | COCCCN(CC(=O)Nc1ccc(F)cc1)S(=O)(=O)c1cccs1 | inconclusive: 17.8%
53 | CC[n+]1c(/C=C/c2c[nH]c3ccccc23)ccc2cc(C)ccc21 | active: 84.1%
54 | CC1CCN(c2ccccc2NC(=O)c2cc([N+](=O)[O-])ccc2N2CCOCC2)CC1 | active: 53.6%

Row | Compound | inhibition
55 | Cc1scc(C(=O)Nn2cnnc2)c1-c1ccccc1 | inactive: -31.1%
56 | COc1ccc(C2(c3ccc(OC)cc3)NC(=O)N(CC(=O)Nc3ccccc3)C2=O)cc1 | inconclusive: 37.2%
57 | CSc1ccc(CN2CCN(C(=O)c3ccncc3)CC2)cc1 | inconclusive: 28.3%
58 | CCN(CC(=O)Nc1ccc(NC(C)=O)cc1)C(=O)c1ccc2c(c1)OCCO2 | inconclusive: 26.7%
59 | CCn1c(SC(C)C(=O)NC2CCCc3ccccc32)nnc1-c1cccs1 (stereo not given) | inconclusive: 41.8%
60 | CN(C)S(=O)(=O)c1cccc(NC(=S)N/N=C/c2ccc(O)c(O)c2O)c1 | inconclusive: 89.8%
61 | Cc1cccc(C(=O)N2CCCC(Nc3ccc(C)c(C)c3)C2)n1 (stereo not given) | inactive: 7.28%
62 | CCn1c(SCc2cccc(F)c2)nc2c(c1=O)SCC2 | inactive: 9.42%
63 | CC(=O)Nc1ccc(S(=O)(=O)N(C)CC(=O)OCC(=O)N2CC(C)OC(C)C2)cc1 (stereo not given) | inconclusive: 23.8%
64 | CC1(C)CC2(CC(c3ccccc3F)c3ccc(O)c(O)c3O2)NC(=S)N1 (stereo not given) | active: 175%
65 | COc1ccc(CCC(=O)NNC(=O)c2cc(Cl)ccc2OC)cc1 | inactive: 0.724%
66 | CCCCN(C(=O)c1ccc2c(c1)OCO2)C1CCS(=O)(=O)C1 (stereo not given) | inactive: -3.97%
67 | O=[N+]([O-])c1ccc2c(c1)oc1ccccc12 | inactive: -1.13%
68 | COc1cccc(Oc2cn[nH]c2-c2ccc(OC)cc2O)c1 | inconclusive: 40.6%
69 | O=C(OCn1ncc(Cl)c(Cl)c1=O)c1cccc(C(F)(F)F)c1 | inactive: 5.87%
70 | Cc1ccc2cc(CN(CCCN(C)C)C(=O)NCc3ccccc3)c(=O)[nH]c2c1C | inconclusive: 25.2%
71 | CCn1c(SCC(=O)Nc2ccc3c(c2)c2ccccc2n3CC)nnc1-c1ccco1 | active: 66.2%
72 | Cc1ccc(C(=O)NC(=S)Nc2ccc(Oc3ccc(Cl)cc3)cc2)cc1 | inactive: -0.0655%
73 | CC(=O)Nc1ccc(NC(=O)c2nc(S(=O)(=O)Cc3ccccc3)ncc2Cl)cc1 | active: 113%
74 | CCc1cccc(CC)c1NC(=O)COC(=O)c1ccc(F)c(S(=O)(=O)N(CC)CC)c1 | inconclusive: 35.9%
75 | C#CCOCCOCCOCCNc1nc(N2CCN(C(=O)C([C@@H](C)O)n3cc([C@@H](N)CCCCN)nn3)CC2)nc(N2CCN(C(=O)[C@H](CCCCN)n3cc([C@@H](N)CC(N)=O)nn3)CC2)n1 (stereo not given in full) | active: 90.9%
76 | CCCCOC(=O)C1=C(C)NC(=O)NC1c1ccc([N+](=O)[O-])s1 (stereo not given) | inconclusive: 37.1%
77 | Cc1cccc(N(C(=O)c2snc(C(N)=O)c2N)C(C(=O)NCC2CCCO2)c2c[nH]c3ccccc23)c1 (stereo not given) | inconclusive: 40.5%
78 | OCCN1CCN(C2Cc3cc(Cl)ccc3Sc3ccc(Cl)cc32)CC1 (stereo not given) (tested in a mixture with another compound) | inconclusive: 59.9%
79 | O=C(CCCN1C(=O)/C(=C/c2ccccc2)SC1=S)N1CCOCC1 | inconclusive: 38.4%
80 | C#CCOCCOCCOCCNc1nc(N2CCN(C(=O)[C@H](CCCCN)n3cc([C@@H](N)CC(C)C)nn3)CC2)nc(N2CCN(C(=O)[C@H](Cc3cc4ccccc4[nH]3)n3cc([C@@H](N)Cc4ccc(O)cc4)nn3)CC2)n1 | inconclusive: 28.2%

A portion from further up:
Row | Compound | inhibition
68 | COc1cccc(Oc2cn[nH]c2-c2ccc(OC)cc2O)c1 | inconclusive: 40.6%
69 | O=C(OCn1ncc(Cl)c(Cl)c1=O)c1cccc(C(F)(F)F)c1 | inactive: 5.87%
70 | Cc1ccc2cc(CN(CCCN(C)C)C(=O)NCc3ccccc3)c(=O)[nH]c2c1C | inconclusive: 25.2%

— PubChem BioAssay AID540336 (Broad Institute, 2011)
